# Assay results taken from patent publication US20220025331A1, “METHODS AND SYSTEMS FOR IMPROVING CELLS FOR USE IN THERAPY” (priority 2017, published 2022).
# Tested on: P3 foAC neocartilage
# Experiment: Phase 2: cytochalasin D and hyaluronidase treatment of P3 (passaged, not redifferentiated) neocartilage
# Type: cell-based, sheep
# Details: without aggregate redifferentiation
# Procedure: Chondrocyte Isolation: Fetal ovine articular chondrocytes (foACs) were harvested from the patellofemoral surfaces of 120-day gestation Dorper cross sheep obtained as medical waste (UC Davis School of Veterinary Medicine). Cartilage from the whole surface of both condyles and the trochlear groove was minced into approximately 1 mm^3 pieces, then washed and centrifuged (500 G for 5 minutes) three times with Dulbecco's Modified Eagle Medium containing 4.5 g/L glucose and GlutaMAX (DMEM; Gibco) and 2% (v/v) penicillin/streptomycin/fungizone (PSF; Lonza). The tissue was digested in 0.2% (w/v) collagenase type II (Worthington) in DMEM containing 3% (v/v) fetal bovine serum (FBS; Atlanta Biologicals) for 18 hours at 37° C. with gentle rocking. […]
# Chondrocyte Expansion and Redifferentiation: Previously frozen P0 foACs were seeded in T-225 flasks at 1.5×10^4 cells/cm^2 and expanded in chemically defined chondrogenic medium (CHG medium) (DMEM containing 1% PSF, 1% ITS+ premix (BD Biosciences), 1% non-essential amino acids (Gibco), 100 nM dexamethasone (Sigma), 50 mg/mL ascorbate-2-phosphate (Sigma), 40 g/mL L-proline (Sigma), and […] sodium pyruvate (Sigma)) with 2% FBS and chondrogenically tuned TFP supplementation (1 ng/mL TGF-μ1, 5 ng/mL bFGF, 10 ng/mL PDGF; al from PeproTech). […] Following dissociation of the aggregates, cells were filtered through a 70 μm cell strainer and counted. […]
molecule,measurement,value
hyaluronidase,collagen I and collagen II production,Incapable of decreasing collagen I production and increasing collagen II production
C=C1[C@@H](C)[C@H]2[C@H](Cc3ccccc3)NC(=O)[C@]23[C@H](OC(C)=O)/C=C/[C@@](C)(O)C(=O)[C@@H](C)C/C=C/[C@H]3[C@@H]1O [cytochalasin D],collagen I and collagen II production,Incapable of decreasing collagen I production and increasing collagen II production
